# Measured values from PubChem BioAssay AID2685 (National Center for Advancing Translational Sciences (NCATS), 2010).
# Some of the results follow. Shown are side measurements of this screen, not its main read-out; they come without a call. Most of these compounds were active or inconclusive in the main read-out, so they are no random draw. Words in brackets tell the shape of the fitted curve; partial curves, single points and poor fits give uncertain potencies.
# Assay: qHTS Assay for Lipid Storage Modulators in Drosophila S3 Cells;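 for cell number change: cells counted by Cell Tracker Red CMTPX staining in the red channel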
# Details: BODIPY lipid droplet fluorescence, 18-24 h; for cell number change: measured here: cell count max response, cells fed with added oleic acid
# In short: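 Drosophila S3 cells loaded with oleic acid (400 uM, as added) and compounds at several concentrations; lipid droplets imaged by 488-nm laser-scanning cytometry, 500–530 nm intensity and object ratio to cell channel. Percent activity normalized to 20 uM Triacsin C.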
# [1] = measured here: cell number channel AC50, cells fed with added oleic acid
# [2] = measured here: lipid fluorescence (Fed channel) AC50, cells fed with added oleic acid
Compound,cell number change,AC50 [1],AC50 [2]
Cc1cccc(C(=O)N=c2c(C#N)cc3c(=O)n4cccc(C)c4nc3n2Cc2ccco2)c1,41%,"0.103 µM [rising, full curve]","0.58 µM [rising, full curve]"
COc1ccccc1N1CCN(C(=O)c2sc3ncnc(N4CCN(c5ccccn5)CC4)c3c2C)CC1,21.8%,"0.0517 µM [rising, full curve, poor fit]",–
COc1ccc(S(=O)(=O)N2CCN(CCC(=O)Nc3ccccc3F)CC2)cc1,7.64%,–,"16.4 µM [rising, partial curve]"
O=C(Nc1ccc2nc(-c3ccc4nc[nH]c4c3)[nH]c2c1)c1cccs1,–,–,"5.17 µM [falling, partial curve]"
CCCSc1ncc(Cl)c(C(=O)Nc2ccc(S(=O)(=O)Nc3ncccn3)cc2)n1,-28.3%,–,–
CN(C)c1ccc(/C=C/c2ccc3ccccc3[n+]2C)cc1,-37.5%,"2.31 µM [falling, full curve]","2.31 µM [falling, full curve]"
COc1cccc(NC(=O)Cn2c3ccc(F)cc3c3nc4n(c(=O)c32)CCS4)c1,–,–,"16.4 µM [falling, partial curve]"
COCCn1c(SCC(=O)Nc2ncc(C)s2)nc2sc3c(c2c1=O)CCC3,-8.73%,–,"2.06 µM [rising, partial curve]"
Clc1ccc(CSCCc2ccncc2)cc1,-71.6%,"25.9 µM [falling, single point]","3.66 µM [rising, partial curve]"
CC(=O)Nc1ccc(NC(=O)CN(C)S(=O)(=O)c2ccc3nc(C)sc3c2)cc1,54.5%,"7.31 µM [rising, single point]","4.11 µM [falling, partial curve]"
O=C(COC(=O)C1CCC1)NCc1ccc(F)cc1,-34.6%,"25.9 µM [falling, single point]","23.1 µM [falling, partial curve]"
COc1cc(CC(=O)OCC(=O)Nc2cc(S(=O)(=O)N3CCCC3)ccc2Cl)cc(OC)c1OC,34.9%,"1.46 µM [rising, partial curve, poor fit]","0.651 µM [rising, full curve]"
CCO/C=N/c1c(C#N)c(CC#N)nn1-c1ccccc1,–,"2.59 µM [rising, partial curve]","29.1 µM [rising, single point]"
CC(=O)Nc1ccc(S(=O)(=O)c2cc(O)ccc2O)cc1,-5.77%,–,–
Cc1ccccc1C(=O)N1CCC(C(=O)Nc2ccc3c(c2)OCCO3)CC1,17.6%,–,"3.66 µM [falling, full curve, poor fit]"
Oc1cccc2cc3cccc(O)c3c(O)c12,–,–,"0.13 µM [falling, full curve, poor fit]"
C=CCc1ccccc1OCCCCN1CCCC1,-24.3%,"0.731 µM [falling, full curve, poor fit]","0.0206 µM [falling, full curve, poor fit]"
COc1ccc(NC(=S)NCc2ccc3c(c2)cc(C)n3C)cc1,20.3%,–,"29.1 µM [rising, single point]"
CC1CC(C(F)(F)F)n2ncc(C(=O)O)c2N1 (configuration not stated),-18.6%,–,"23.1 µM [falling, single point]"
COC(=O)Nc1ccc(S(=O)(=O)N2CCCCC2)cc1,-59%,"10.3 µM [falling, partial curve, poor fit]","23.1 µM [falling, partial curve]"
CCOc1ccccc1NC(=O)C1CCCN(C(=O)NCc2ccccc2)C1 (configuration not stated),–,"6.51 µM [rising, single point]",–
CCCCNC(=S)NNC(=O)c1csc2c1CCC(C)C2 (configuration not stated),–,–,"16.4 µM [falling, single point]"
CCOc1ccc(C(=O)N/N=C/c2c(C)[nH]c(=O)[nH]c2=O)cc1,16.6%,"4.11 µM [rising, single point]",–
CN(c1ccccc1C(=O)Nc1cccc(C(F)(F)F)c1)S(C)(=O)=O,0.656%,–,–
O=C(Cc1n[nH]c(=O)c2ccccc12)OCC(=O)N(Cc1ccccc1)Cc1ccccc1,36.6%,–,"29.1 µM [rising, single point]"
O=C(N/N=C/c1cccc(F)c1)NC1CCCCC1,-43.7%,"16.4 µM [falling, single point]","14.6 µM [falling, single point]"
CCc1cccc(C)c1NC(=O)C1CCCN1C(=O)NCc1ccccc1 (configuration not stated),-1.35%,–,"29.1 µM [falling, single point]"
O=C(Cc1ccccc1)NCC(=O)OCC(=O)c1ccc(Cl)cc1,22%,–,"1.3 µM [rising, full curve, poor fit]"
